# Experimental data reported in patent US20250255882A1, “TREATMENT OF CARDIAC CONDITION RELATED COGNITIVE DYSFUNCTION” (The Trustees of Columbia University in the City of New York, priority 2024, published 2025).
# At least one structure is not confirmed: it was looked up by name or label, or the drawing left a doubt.
# What was measured:
# Format in all cases: in vivo, mouse
# [1] = tested on: RyR2-p.Ser2808Asp mice; experiment: behavioral tests in RyR2-p.Ser2808Asp mice
# [2] = tested on: TGF-β pathway; experiment: immunoblots of TGF-β, phosphorylated SMAD3 and NOX2 binding to RyR2 in hippocampi; conditions: hippocampi of treated MI mice
# Source text: FIG. 12A includes immunoblots showing expressing levels of TGF-β, phosphorylated SMAD3, total SMAD3, and NOX2 binding to RyR2 in the hippocampi of controls (n=4) and HF patients (n=9). FIG. 12B includes bar graphs depicting the ratio of TGF-β expression normalized to GAPDH, phosphorylated SMAD3 to total SMAD3 and NOX2 binding to RyR2 (IP RyR2). The same quantity of proteins was loaded on two separate gels and blotted separately for SMAD3 and pSMAD3. Individual values are shown with mean±SEM (t-test * p<0.05, Controls vs. HF patients). […] FIG. 12D includes bar graphs depicting the ratio of TGF-β expression normalized to GAPDH, phosphorylated SMAD3 to total SMAD3 and NOX2 binding to RyR2 (IP RyR2). The same quantity of proteins was loaded on two separate gels and blotted separately for SMAD3 and pSMAD3. Individual values are shown with mean±SEM. […] All statistical tests were two-sided. Data are derived from biologically independent samples.
# TGF-β has been implicated in CNS disorders including Alzheimer's disease.
# [3] = tested on: MI mice; experiment: long-term potentiation (fEPSPs) in hippocampal slices; conditions: slices from treated MI mice; MI decreased LTP versus SHAM
# Description: FIG. 4A is a schematic representation of a hippocampal brain slice for LTP experiments and the positioning of the stimulating and recording electrodes.
# Field excitatory postsynaptic potentials (fEPSPs) were evaluated at the Schaffer collateral using a bipolar electrode placed at the CA3 and recording at the CA1 (FIG. 4A). […] Importantly, MI and treatment with the various compounds after MI had no effect on basal synaptic transmission determined by the input-output curves (I-O; P=0.5; FIG. 4D).
smiles,measurement,setting,value
COc1ccc2c(c1)CN(C)CCS2 [S107],disinhibited behavior,[1],reduced
same,short-term memory,[1],improved
same,phosphorylation of SMAD3,[2],diminished
same,LTP (hippocampal synaptic plasticity),[3],reversed this effect
